{"source": "patent US20250360087A1", "about": "“COMPOSITIONS COMPRISING LIPID DROPLETS ENCAPSULATED WITHIN POLYSACCHARIDE WALLS AND USES THEREOF” (UNIVERSITY OF SOUTH AUSTRALIA, priority 2022, published 2025)", "system": "intracellular SCV S. aureus", "experiment": "In vitro efficacy against intracellular SCV S. aureus in infected macrophages (CFU)", "conditions": "0.5 μg/mL rifampicin (4×MIC), 4 h treatment", "note": "At least one compound was matched to its structure with a doubt left.", "data": [{"smiles": "CO[C@H]1/C=C/O[C@@]2(C)Oc3c(C)c(O)c4c(O)c(c(/C=N/N5CCN(C)CC5)c(O)c4c3C2=O)NC(=O)/C(C)=C\\C=C\\[C@H](C)[C@H](O)[C@@H](C)[C@@H](O)[C@@H](C)[C@H](OC(C)=O)[C@@H]1C", "note": "[rifampicin]", "values": [{"measurement": "reduction in CFU of SCV S. aureus", "value": "negligible reduction"}]}]}
